Measured values published in patent publication US20250051468A1.
No constants are given. Whether binding was seen depends on the method and setting. Some binding calls cover weakened binding; strength is not graded here.

Sequences of proteins named here, by UniProt entry; tags and fusion partners are left off. Residues count along the entry.
UniProt P43489, residues 29-277: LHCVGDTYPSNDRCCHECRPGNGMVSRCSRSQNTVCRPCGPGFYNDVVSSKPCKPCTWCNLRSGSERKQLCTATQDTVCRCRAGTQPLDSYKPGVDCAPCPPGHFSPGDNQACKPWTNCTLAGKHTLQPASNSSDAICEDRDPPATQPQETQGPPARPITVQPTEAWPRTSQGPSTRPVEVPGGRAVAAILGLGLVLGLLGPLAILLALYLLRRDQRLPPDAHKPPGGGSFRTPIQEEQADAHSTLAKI

Legend:
[1] = target: human OX40 expressed on cells (293T-OX40, Jurkat-OX40) (human) (UniProt P43489); assay: ELISA on OX40-ECD-hFc and FACS on 293T-OX40 cells
[2] = target: human OX40 expressed on cells (293T-OX40, Jurkat-OX40) (human) (UniProt P43489); assay: FACS on 293T-OX40 cells

binding [1] | binding [2] | Binder
binds |  | murine OX40 hybridoma antibody 3G4 (antibody, V domains shown) VH: EVQLQQSGPELVKPGTSVKMSCKASGYRFTSYVLHWVRRKPGQGLEWIGYVNPFNDNTRYNEKFKAKATLTSDKSSSTAYMDLVSLTSEDSAVYYCSRGLYDYSYVMDYWGQGTSVTVSS VL: DIQMTQTTSSLSASLGDGVTITCQASQDIRNYLNWYQQKPDGTIKLLIYHTSKLHSGVPSRFSGGGSGTDFSLTISNLDQEDIATYFCQQSQTLPYTFGGGTKLEIKR
 | binds | humanized anti-OX40 antibody hu3G4-DE (antibody, V domains shown) VH: QVQLVQSGAEVKKPGASVKVSCKASGYRFTSYVLHWVRQAPGQRLEWIGYVNPFNDNTRYNEKFKARATLTSDKSASTAYMELSSLRSEDTAVYYCSRGLYDYSYVMDYWGQGTLVTVSS VL: DIQMTQSPSSLSASVGDRVTITCQASQDIRNYLNWYQQKPGKAPKLLIYHTSKLHSGVPSRFSGSGSGTDFTFTISSLQPEDIATYYCQQSNTLPYTFGQGTKLEIK
